Reference: article PMC6872149, “Protein:Protein interactions in the cytoplasmic membrane apparently influencing sugar transport and phosphorylation activities of the e. coli phosphotransferase system” (PLoS ONE, 2019)
Results are given in words; binding and its absence hold for the method and conditions named. Some results given as binding are weak or reduced against the parent protein; the word gives no strength. Sequences can lack the tags named with a protein.

The chains behind the UniProt entries cited, without tags or fusion partners.
UniProt P00550: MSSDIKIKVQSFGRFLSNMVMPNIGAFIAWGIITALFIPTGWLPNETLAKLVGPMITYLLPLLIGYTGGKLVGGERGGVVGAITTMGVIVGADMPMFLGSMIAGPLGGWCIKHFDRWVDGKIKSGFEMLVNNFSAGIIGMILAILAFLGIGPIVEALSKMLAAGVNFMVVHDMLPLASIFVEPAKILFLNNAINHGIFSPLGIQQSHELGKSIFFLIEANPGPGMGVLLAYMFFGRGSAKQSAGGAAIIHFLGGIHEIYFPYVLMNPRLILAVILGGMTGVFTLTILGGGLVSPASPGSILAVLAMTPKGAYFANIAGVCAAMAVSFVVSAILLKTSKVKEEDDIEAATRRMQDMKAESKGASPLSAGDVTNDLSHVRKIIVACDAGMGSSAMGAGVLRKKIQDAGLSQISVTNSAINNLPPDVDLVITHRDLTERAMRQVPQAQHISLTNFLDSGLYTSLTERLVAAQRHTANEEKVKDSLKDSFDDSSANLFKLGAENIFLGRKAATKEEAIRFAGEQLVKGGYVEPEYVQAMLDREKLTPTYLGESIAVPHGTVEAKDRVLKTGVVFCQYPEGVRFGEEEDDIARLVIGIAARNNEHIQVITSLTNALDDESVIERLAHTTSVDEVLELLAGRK

T1: FruA (fructose PTS Enzyme IIC-IIB-IIB') fused to the T25 domain (pKNT25-fruA) (E. coli) (UniProt P20966)
T1 sequence: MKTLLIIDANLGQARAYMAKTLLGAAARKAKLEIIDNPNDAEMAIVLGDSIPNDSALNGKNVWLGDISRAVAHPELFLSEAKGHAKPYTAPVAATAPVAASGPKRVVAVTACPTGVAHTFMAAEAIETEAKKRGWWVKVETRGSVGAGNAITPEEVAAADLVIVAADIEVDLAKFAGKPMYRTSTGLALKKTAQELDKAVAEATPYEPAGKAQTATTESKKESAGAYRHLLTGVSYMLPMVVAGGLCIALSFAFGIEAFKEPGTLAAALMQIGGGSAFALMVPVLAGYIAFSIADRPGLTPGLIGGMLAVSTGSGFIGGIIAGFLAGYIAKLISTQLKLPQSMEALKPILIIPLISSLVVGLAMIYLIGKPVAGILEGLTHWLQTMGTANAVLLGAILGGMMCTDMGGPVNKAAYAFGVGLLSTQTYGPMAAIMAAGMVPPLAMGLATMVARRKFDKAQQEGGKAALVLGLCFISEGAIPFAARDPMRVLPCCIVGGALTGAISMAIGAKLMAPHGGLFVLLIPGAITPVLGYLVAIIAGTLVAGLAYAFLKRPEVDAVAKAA

T2: FruB (fructose PTS IIA-FPr) fused to the T18 domain (pUT18-fruB) (E. coli) (UniProt P69811)
T2 sequence: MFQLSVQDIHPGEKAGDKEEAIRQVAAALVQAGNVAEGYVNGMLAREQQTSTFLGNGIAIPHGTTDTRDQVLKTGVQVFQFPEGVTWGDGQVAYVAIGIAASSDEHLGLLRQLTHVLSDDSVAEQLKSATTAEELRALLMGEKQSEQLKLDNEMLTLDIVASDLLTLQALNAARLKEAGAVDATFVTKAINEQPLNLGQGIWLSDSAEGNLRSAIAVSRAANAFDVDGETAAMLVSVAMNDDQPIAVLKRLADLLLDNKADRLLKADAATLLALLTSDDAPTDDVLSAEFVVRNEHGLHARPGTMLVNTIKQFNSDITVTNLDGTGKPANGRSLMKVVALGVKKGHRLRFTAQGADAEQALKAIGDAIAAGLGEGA


Target: T1, FruA (fructose PTS Enzyme IIC-IIB-IIB') fused to the T25 domain (pKNT25-fruA) (E. coli)
Assay: two-hybrid; bacterial adenyl cyclase two-hybrid (BACTH, Euromedex EUK001); one protein fused N-terminal of T18 (pUT18), the other N-terminal of T25 (pKNT25); co-transformed into E. coli BTH101 deleted for cyaA; MacConkey agar with maltose, Kn, Ap and IPTG, 30°C up to 48 h; red colonies indicate interaction

binding	Molecule
binds	MtlA (mannitol PTS Enzyme IIC-IIB-IIA) fused to the T18 domain (pUT18-mtlA) (from UniProt P00550 1-637)
binds	TreB (trehalose PTS Enzyme IIB-IIC) fused to the T18 domain (pUT18-treB) (protein, UniProt P36672 1-473) MMSKINQTDIDRLIELVGGRGNIATVSHCITRLRFVLNQPANARPKEIEQLPMVKGCFTNAGQFQVVIGTNVGDYYQALIASTGQAQVDKEQVKKAARHNMKWHEQLISHFAVIFFPLLPALISGGLILGFRNVIGDLPMSNGQTLAQMYPSLQTIYDFLWLIGEAIFFYLPVGICWSAVKKMGGTPILGIVLGVTLVSPQLMNAYLLGQQLPEVWDFGMFSIAKVGYQAQVIPALLAGLALGVIETRLKRIVPDYLYLVVVPVCSLILAVFLAHALIGPFGRMIGDGVAFAVRHLMTGSFAPIGAALFGFLYAPLVITGVHQTTLAIDLQMIQSMGGTPVWPLIALSNIAQGSAVIGIIISSRKHNEREISVPAAISAWLGVTEPAMYGINLKYRFPMLCAMIGSGLAGLLCGLNGVMANGIGVGGLPGILSIQPSYWQVFALAMAIAIIIPIVLTSFIYQRKYRLGTLDIV
binds	NagE (N-acetylglucosamine PTS Enzyme IIC-IIB-IIA) fused to the T18 domain (pUT18-nagE) (protein, UniProt P09323 1-648) MNILGFFQRLGRALQLPIAVLPVAALLLRFGQPDLLNVAFIAQAGGAIFDNLALIFAIGVASSWSKDSAGAAALAGAVGYFVLTKAMVTINPEINMGVLAGIITGLVGGAAYNRWSDIKLPDFLSFFGGKRFVPIATGFFCLVLAAIFGYVWPPVQHAIHAGGEWIVSAGALGSGIFGFINRLLIPTGLHQVLNTIAWFQIGEFTNAAGTVFHGDINRFYAGDGTAGMFMSGFFPIMMFGLPGAALAMYFAAPKERRPMVGGMLLSVAVTAFLTGVTEPLEFLFMFLAPLLYLLHALLTGISLFVATLLGIHAGFSFSAGAIDYALMYNLPAASQNVWMLLVMGVIFFAIYFVVFSLVIRMFNLKTPGREDKEDEIVTEEANSNTEEGLTQLATNYIAAVGGTDNLKAIDACITRLRLTVADSARVNDTMCKRLGASGVVKLNKQTIQVIVGAKAESIGDAMKKVVARGPVAAASAEATPATAAPVAKPQAVPNAVSIAELVSPITGDVVALDQVPDEAFASKAVGDGVAVKPTDKIVVSPAAGTIVKIFNTNHAFCLETEKGAEIVVHMGIDTVALEGKGFKRLVEEGAQVSAGQPILEMDLDYLNANARSMISPVVCSNIDDFSGLIIKAQGHIVAGQTPLYEIKK
binds	GatC (galactitol PTS Enzyme IIC) fused to the T18 domain (pUT18-gatC) (protein, UniProt P69831 1-451) MFSEVMRYILDLGPTVMLPIVIIIFSKILGMKAGDCFKAGLHIGIGFVGIGLVIGLMLDSIGPAAKAMAENFDLNLHVVDVGWPGSSPMTWASQIALVAIPIAILVNVAMLLTRMTRVVNVDIWNIWHMTFTGALLHLATGSWMIGMAGVVIHAAFVYKLGDWFARDTRNFFELEGIAIPHGTSAYMGPIAVLVDAIIEKIPGVNRIKFSADDIQRKFGPFGEPVTVGFVMGLIIGILAGYDVKGVLQLAVKTAAVMLLMPRVIKPIMDGLTPIAKQARSRLQAKFGGQEFLIGLDPALLLGHTAVVSASLIFIPLTILIAVCVPGNQVLPFGDLATIGFFVAMAVAVHRGNLFRTLISGVIIMSITLWIATQTIGLHTQLAANAGALKAGGMVASMDQGGSPITWLLIQVFSPQNIPGFIIIGAIYLTGIFMTWRRARGFIKQEKVVLAE

Molecule	binding
FruB (fructose PTS IIA-FPr) fused to the T18 domain (pUT18-fruB) (natural protein, E. coli, UniProt P69811 1-376, looked up) MFQLSVQDIHPGEKAGDKEEAIRQVAAALVQAGNVAEGYVNGMLAREQQTSTFLGNGIAIPHGTTDTRDQVLKTGVQVFQFPEGVTWGDGQVAYVAIGIAASSDEHLGLLRQLTHVLSDDSVAEQLKSATTAEELRALLMGEKQSEQLKLDNEMLTLDIVASDLLTLQALNAARLKEAGAVDATFVTKAINEQPLNLGQGIWLSDSAEGNLRSAIAVSRAANAFDVDGETAAMLVSVAMNDDQPIAVLKRLADLLLDNKADRLLKADAATLLALLTSDDAPTDDVLSAEFVVRNEHGLHARPGTMLVNTIKQFNSDITVTNLDGTGKPANGRSLMKVVALGVKKGHRLRFTAQGADAEQALKAIGDAIAAGLGEGA	binds

Target: T2, FruB (fructose PTS IIA-FPr) fused to the T18 domain (pUT18-fruB) (E. coli)
Assay: as above

binding	Molecule
binds	MtlA (mannitol PTS Enzyme IIC-IIB-IIA) fused to the T25 domain (pKNT25-mtlA) (from UniProt P00550 1-637)
binds	NagE (N-acetylglucosamine PTS Enzyme IIC-IIB-IIA) fused to the T25 domain (pKNT25-nagE) (protein, UniProt P09323 1-648) MNILGFFQRLGRALQLPIAVLPVAALLLRFGQPDLLNVAFIAQAGGAIFDNLALIFAIGVASSWSKDSAGAAALAGAVGYFVLTKAMVTINPEINMGVLAGIITGLVGGAAYNRWSDIKLPDFLSFFGGKRFVPIATGFFCLVLAAIFGYVWPPVQHAIHAGGEWIVSAGALGSGIFGFINRLLIPTGLHQVLNTIAWFQIGEFTNAAGTVFHGDINRFYAGDGTAGMFMSGFFPIMMFGLPGAALAMYFAAPKERRPMVGGMLLSVAVTAFLTGVTEPLEFLFMFLAPLLYLLHALLTGISLFVATLLGIHAGFSFSAGAIDYALMYNLPAASQNVWMLLVMGVIFFAIYFVVFSLVIRMFNLKTPGREDKEDEIVTEEANSNTEEGLTQLATNYIAAVGGTDNLKAIDACITRLRLTVADSARVNDTMCKRLGASGVVKLNKQTIQVIVGAKAESIGDAMKKVVARGPVAAASAEATPATAAPVAKPQAVPNAVSIAELVSPITGDVVALDQVPDEAFASKAVGDGVAVKPTDKIVVSPAAGTIVKIFNTNHAFCLETEKGAEIVVHMGIDTVALEGKGFKRLVEEGAQVSAGQPILEMDLDYLNANARSMISPVVCSNIDDFSGLIIKAQGHIVAGQTPLYEIKK
